# Reference: patent US11603378B2, “Azole silane compound” (Atotech Deutschland GmbH, priority 2018, dated 2023)
# The name of at least one read-out is uncertain.
# Assay: Solubility test: time until 50 g/L of compound is fully dissolved in glycol ether solvent
# Format: physicochemical
# Settings: approx. 22° C.
# Procedure: In a solubility test, solubility in diethylene glycol monobutyl ether (DEGBE) and ethylene glycol monobutyl ether (EGBE) as solvents was tested at approximately 22° C. under constant stirring. For that, the azole silane compound of Formula (Ia), obtained in Example A), 1), and the reference compound of formula (X) were dissolved in respective samples (mixtures).
# In each solubility test the time “t” was determined until an amount of the respective compound in its highly viscous state, corresponding in each case to a concentration of 50 g/L of the azole silane compound (approximately corresponding to 5 wt.-%, based on the total weight of a respective test composition), was fully dissolved in the respective solvent. Each solubility test was carried out for 30 minutes.
structure (smiles),measurement,value
CO[Si](CCCSc1nnc(N)[nH]1)(OC)OC [formula (X)],time for complete solubilization in DEGBE compared to compound of formula (Ia),approximately twice the time
